Source: the supplement of paper PMC3334620
Over roughly 33,000 sequences, “E-score (-0.5 to 0.5)” has its median near -0.0034; the highest 2% begin near 0.25. Some of the results follow.

Each sequence was assayed against T1, Yap3 (UniProt P38749) (assay: PBM E-score (8-mer binding enrichment) (E-score (-0.5 to 0.5)); higher = stronger / more preferred TF binding). Settings: protein concentration: 100 nM; construct: GST-full length.
T1 sequence: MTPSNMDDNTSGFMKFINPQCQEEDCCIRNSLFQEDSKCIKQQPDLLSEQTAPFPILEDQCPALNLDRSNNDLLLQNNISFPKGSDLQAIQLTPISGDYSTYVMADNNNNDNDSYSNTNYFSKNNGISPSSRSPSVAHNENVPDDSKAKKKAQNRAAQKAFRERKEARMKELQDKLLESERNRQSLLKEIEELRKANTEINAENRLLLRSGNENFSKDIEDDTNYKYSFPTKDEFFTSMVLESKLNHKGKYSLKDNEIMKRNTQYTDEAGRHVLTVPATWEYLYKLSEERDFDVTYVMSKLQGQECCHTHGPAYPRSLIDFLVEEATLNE
Protocol: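 Universal 'all 10-mer' protein binding microarrays (Agilent AMADID 015681) probed with GST-tagged S. cerevisiae TFs (full-length or DBD) made by in vitro transcription/translation (PURExpress), about 100-200 nM. Bound TF was detected with fluorescent anti-GST. Each ungapped 8-mer (which stands for itself and its reverse complement) is scored by the PBM enrichment score (E-score), a modified Wilcoxon-Mann-Whitney statistic from -0.5 to +0.5, computed with the Universal PBM Analysis Suite. Scale: above 0.35 generally sequence-specific binding.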

Sequence	PBM E-score
ACAATTAG	-0.0417
AACCGGAT	0.13
ATGTTCCG	-0.00499
AGCTGGAT	-0.0595
CTTATACA	-0.0253
CTGATTTA	0.14
ACAAGGCC	-0.187
CTCAAATA	0.0822
GGTAAGAC	-0.109
GTAGCACA	-0.0421
GAGTGTAC	-0.0383
ACCAATCC	0.0692
CCTTGAAC	-0.0978
GACACTGA	0.0328
AAACTGGT	0.102
CTAATAAC	0.15
AGTATAGG	0.0414
CATGCAAC	0.089
AAAAGACC	-0.0384
CCAGCGAC	-0.0681
CTTGCATC	-0.118
ATGCCGCC	-0.0943
CAAGGCTA	-0.014
ACATCCTA	0.0583
AGCGACTA	-0.0433

Sequence	PBM E-score
CTCGCGCC	-0.102
AATGCGTA	0.0711
GTGCGTGA	-0.0199
ACTCTTTA	-0.0662
ACCCAGGT	-0.28
AGGTTAGG	0.148
AACAAAAA	0.307
TAGCACCA	0.0413
GCGAGTCA	-0.0691
CGCAACTC	0.0614
ACTGCGTC	-0.102
ACTCGTTC	-0.0576
ATCGTCGG	-0.0703
CTTGCGAA	0.188
GAACGCAA	0.0614
ACGGAAAT	0.323
CACTGTGG	-0.106
TAGACTAA	-0.0379
AGGAGATG	0.0415
GCACATCA	-0.0379
GCAGCAGC	-0.149
ACGACGCG	-0.0116
ACGTACAG	0.0953
ATTCAATC	0.0991
GTTCCAGA	0.0899

Sequence	PBM E-score
CGTTGATA	0.204
GGGCCAAA	-0.00772
ACACCTGG	-0.152
CGATGGGA	-0.0412
CCAGGGAA	-0.188
GTGTCACA	0.114
ACGTTACC	-0.0647
TGGGTTAA	-0.0447
GGTCAATA	0.208
ATGGTTCG	0.145
GAAGGTCC	-0.172
GTTCTCGA	-0.0521
AGGACGTG	-0.15
AATTAATT	0.211
CTAGTGTC	0.00568
ACGTGAGA	0.011
CTGGATAA	0.0474
GCTTTTTA	0.102
ACTTATGA	0.18
AGAGAGTG	-0.114
ACCTTGGA	-0.166
AAAGGTCC	-0.0315
ATCCGGGC	-0.209
AATCCCCG	-0.111
GTTCGATA	0.155

A stretch from further up:
Sequence	PBM E-score
GTGTCACA	0.114
ACGTTACC	-0.0647
TGGGTTAA	-0.0447

Remaining list, next part:

Sequence	PBM E-score
TAAGTCGA	-0.00297
AGGCCCCC	-0.415
AACCGACG	0.0843
AAACCATC	0.107
CCCCAATA	-0.0168
GAGTTGGC	-0.0517
AGTAAGGC	0.12
CCGGAAGA	-0.0592
ACCACGCA	-0.168
CATACGCC	-0.00203
AGTGACTC	-0.109
AGTTCTAA	-0.0287
ATCAGTGC	-0.034
CTGAGAGA	-0.0731
ATGAAGTG	0.0583
GTAACCGA	0.0998
ACGGGTAG	-0.0943
CGACAGGC	-0.157
ACCTCCAG	-0.208
GTAATTCA	0.177
GCCATGAC	-0.0475
AAGCTATC	0.072
AAAAGCGT	0.0246
CAGGAACG	0.00304
ATGTACGA	0.156

Sequence	PBM E-score
CATATGCC	0.105
GCGGATCA	-0.145
TCTCACCA	0.0245
AGATAACT	0.0265
ATTTGCCA	-0.0197
AACACGCG	0.0861
AGCGTAAA	0.0656
ATGCTAAA	0.062
CAAAAATC	0.051
CCACAGCA	-0.113
ACCGCAAT	0.115
CATCTTGC	0.0712
AGCGCTCC	-0.032
GGAGCACA	0.0175
ATGGTGTA	0.139
GGTGCGTA	-0.15
AAAATTTG	0.0972
AGGATTCA	-0.00455
TACTGTCA	0.0947
CAACAATA	0.159
ACCCCCCT	-0.454
CGCCTAAC	0.0468
CTGGAGTC	-0.228
CTCCAAGA	-0.12
CTACCGAA	-0.146

Reprinted at random: 6 records from the list
Sequence	PBM E-score
GGAGCACA	0.0175
CTACCGAA	-0.146
ACCGCAAT	0.115
ATTTGCCA	-0.0197
TCTCACCA	0.0245
CTGGAGTC	-0.228

The list goes on.

Sequence	PBM E-score
CCGGTTAG	-0.111
ACCCTCAT	-0.187
AGTACCAC	0.0292
CGGCGCAG	-0.094
GCTAGTGA	-0.0229
CACGCATC	-0.0655
GCCGATAC	-0.0723
CGAAATGC	0.138
TAACAGGA	0.195
AACGAGTG	-0.0979
ATACTCCG	0.0742
AGTTAGTC	0.0694
ACGCAAGT	-0.0875
AGGAATGA	0.0283
GTGCGACA	-0.0998
CACTTCCG	0.0806
CCACTCGA	0.00136
AACATTGA	0.121
CGTGAGAA	-0.0738
CGTATCGA	-0.0593
CGTGGGCA	-0.226
CATGGCAC	-0.12
CGCGGGAC	-0.00314
ACCCTCGT	-0.041
GGCTAGTA	0.094

Sequence	PBM E-score
AGTTAGGA	0.0358
ACTTCCCG	-0.0663
ACGTATAC	0.155
CTTTCCAC	0.0879
CATGGTAA	0.144
AATTGCGC	0.231
GAGCGCTC	-0.0353
ATTTATTG	0.0964
ATACCGCG	0.187
ATAGAAAG	0.00085
GTTGGACA	0.0869
AGTCGGAC	-0.0202
TACTATGA	0.189
AAAGTTAA	0.228
CAAGTTGA	-0.00801
GACCATCA	0.00881
CTGCCGCC	-0.335
GTTGCCTA	0.0281
ATTGTGTC	0.158
CAATTCTC	-0.0124
GATCTCGC	0.0469
AACGGCAG	-0.0518
